Experimental data from PMC7862700.
Only a part is listed here, and it is no random draw. At the low end of the ranking the order means little.

Protein sequences, listed by entry. Tags and fused reporters are not part of them. Lines headed by an entry give the natural chain unless they say otherwise; changes in a name come on top.
UniProt Q01892: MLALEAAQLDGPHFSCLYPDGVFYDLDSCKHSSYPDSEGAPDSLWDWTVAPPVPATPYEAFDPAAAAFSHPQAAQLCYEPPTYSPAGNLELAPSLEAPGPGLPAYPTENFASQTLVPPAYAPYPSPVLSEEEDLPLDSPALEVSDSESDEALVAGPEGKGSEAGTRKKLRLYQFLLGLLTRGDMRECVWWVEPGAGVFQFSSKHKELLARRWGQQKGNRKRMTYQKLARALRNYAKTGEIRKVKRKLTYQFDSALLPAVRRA
UniProt P41161: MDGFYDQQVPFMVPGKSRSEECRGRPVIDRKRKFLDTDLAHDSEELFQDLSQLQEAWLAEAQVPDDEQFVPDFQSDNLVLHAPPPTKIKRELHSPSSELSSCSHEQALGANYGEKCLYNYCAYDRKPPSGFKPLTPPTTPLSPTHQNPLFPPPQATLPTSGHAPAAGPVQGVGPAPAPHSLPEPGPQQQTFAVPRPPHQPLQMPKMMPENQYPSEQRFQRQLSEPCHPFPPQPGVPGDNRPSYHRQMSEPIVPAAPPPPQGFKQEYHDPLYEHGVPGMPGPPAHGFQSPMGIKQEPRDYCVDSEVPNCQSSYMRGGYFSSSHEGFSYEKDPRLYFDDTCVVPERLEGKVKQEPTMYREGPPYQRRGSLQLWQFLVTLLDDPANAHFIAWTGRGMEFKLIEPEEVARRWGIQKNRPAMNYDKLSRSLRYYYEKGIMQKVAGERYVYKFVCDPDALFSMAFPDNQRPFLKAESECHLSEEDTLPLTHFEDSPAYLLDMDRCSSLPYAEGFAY

Target: T1, EHF (UniProt Q9NZC4)
T1 sequence: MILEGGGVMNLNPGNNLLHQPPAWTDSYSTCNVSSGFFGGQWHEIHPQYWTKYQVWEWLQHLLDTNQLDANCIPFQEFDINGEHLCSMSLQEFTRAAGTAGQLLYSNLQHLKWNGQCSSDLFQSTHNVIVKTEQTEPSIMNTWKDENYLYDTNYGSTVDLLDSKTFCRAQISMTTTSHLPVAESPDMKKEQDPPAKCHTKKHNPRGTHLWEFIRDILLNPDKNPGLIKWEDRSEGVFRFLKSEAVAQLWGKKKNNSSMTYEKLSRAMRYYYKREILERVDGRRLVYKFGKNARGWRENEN
Assay: DAPPL (digital affinity profiling via proximity ligation, sequencing)
Details: 10 mM Tris-HCl pH 7.5, 50 mM NaCl, 1 mM DTT, 4% glycerol, room temperature, 30 min; GST-TFs on glutathione beads, 16-mer random dsDNA library, 0.1% …; high values mean tight binding; double strand, one strand shown; scale: fold enrichment (6-mer frequency, TF over GST control)

| Sequence | binding signal |
| --- | --- |
| GTTAAT | 1.16 |
| TGTCAC | 1.22 |
| AATGGT | 1.4 |
| ACGCCG | 1.14 |
| AATAGT | 1.23 |
| CGCGGC | 0.982 |
| TCAATC | 0.992 |
| CCGGAC | 1.56 |
| CAACCC | 1.16 |
| ACTCCG | 1.42 |
| GATCTA | 0.987 |
| ACCCTT | 1.18 |
| TCTCCT | 1.43 |
| CTAGAA | 0.947 |
| CCCCAG | 1 |
| TAAACT | 1.15 |
| ATAAGT | 1.04 |
| ATTCTC | 1.27 |
| TTATCC | 1.52 |
| ACAATT | 1.23 |

Target: SPIB (UniProt Q01892)
Assay: as above
Details: 10 mM Tris-HCl pH 7.5, 50 mM NaCl, 1 mM DTT, 4% glycerol, room temperature, 30 min; GST-TFs on glutathione beads, 16-mer random dsDNA library, 0.1% …; high values mean tight binding; double strand, one strand shown; scale: fold enrichment (6-mer frequency, TF over GST control)

| Sequence | binding signal |
| --- | --- |
| GTTATT | 1.09 |
| ATATTG | 1.28 |
| CGTCAC | 1.18 |
| TTGAGG | 0.951 |
| ATTCAT | 1.21 |
| TTGAAA | 1.1 |
| TTGCTC | 1.25 |
| ACGCCG | 1 |
| CACTGC | 1.44 |
| ATAAGG | 1.01 |
| ATTGGG | 1.26 |
| TTCTCT | 1.16 |
| CGCGGC | 0.975 |
| TCAATC | 1.04 |
| CCGGAC | 1.57 |
| CAACCC | 1.26 |

| Sequence | binding signal |
| --- | --- |
| TAGTTC | 1.51 |
| GATCTA | 1.06 |
| AATCAG | 1.19 |
| CTCCCA | 1.36 |
| ACCCTT | 1.19 |
| TAGAAT | 0.999 |
| CTAGAA | 0.977 |
| TTACGT | 0.962 |
| CCCCAG | 0.963 |
| TAAACT | 1.23 |
| ATAAGT | 0.995 |
| TTCGAC | 1.45 |
| ACAATT | 1.2 |
| GCTTGT | 1.13 |
| CTCTCT | 1.56 |
| TTGTGC | 1.1 |

Target: ETV5 (UniProt P41161)
Assay: as above
Details: 10 mM Tris-HCl pH 7.5, 50 mM NaCl, 1 mM DTT, 4% glycerol, room temperature, 30 min; GST-TFs on glutathione beads, 16-mer random dsDNA library, 0.1% …; high values mean tight binding; double strand, one strand shown; scale: fold enrichment (6-mer frequency, TF over GST control)

| Sequence | binding signal |
| --- | --- |
| GTTATT | 1.26 |
| ATATTG | 1.37 |
| CGTCAC | 1.24 |
| GTTAAT | 1.17 |
| TTGAGG | 1.09 |
| ATTCAT | 1.21 |
| TTGAAA | 1.18 |
| TGTCAC | 1.15 |
| TTGCTC | 1.41 |
| AATGGT | 1.46 |
| ACGCCG | 1.12 |
| CACTGC | 1.37 |
| ATAAGG | 1.04 |
| AATAGT | 1.27 |
| ATTGGG | 1.26 |
| TTCTCT | 1.24 |
| CGCGGC | 0.974 |
| TCAATC | 0.991 |
| CCGGAC | 1.57 |
| CAACCC | 1.23 |

| Sequence | binding signal |
| --- | --- |
| TAGTTC | 1.41 |
| ACTCCG | 1.44 |
| GATCTA | 0.99 |
| AATCAG | 1.15 |
| CTCCCA | 1.37 |
| ACCCTT | 1.25 |
| TAGAAT | 1.03 |
| TCTCCT | 1.33 |
| CTAGAA | 0.994 |
| TTACGT | 1.19 |
| CCCCAG | 0.981 |
| TAAACT | 1.23 |
| ATAAGT | 0.991 |
| TTCGAC | 1.46 |
| ATTCTC | 1.31 |
| TTATCC | 1.45 |
| ACAATT | 1.33 |
| GCTTGT | 1.2 |
| CTCTCT | 1.57 |
| TTGTGC | 1.17 |
